{"source": "paper PMC12187018", "binders": {"B1": {"name": "P2X7 (R), endogenous in equine macrophages (receptor, UniProt F6Q5L6 1-561)", "chain": "MPACCSWNDVFQYETNKVTRIQSMNYGTIKWICHLIVFSYVIFALVSDKRYQRKEPLISSVHTKVKGIAEVREEIIESGAKKVVQSVFDTADYTFPLQGNSFFVMTNFLKTEGQEQGLCPEYPTRRTLCSSDRGCKKGWMDPQSKGIQTGRCIVYKGNQKTCEVSAWCPIEAVEEAPRPALLNSAENFTVLIKNNIDFPGHNYTTRNFLPGLNITCTFHKTQNPQCPIFRLGDIFRETGDHFSDVAIQGGIMGIEIYWDCNLDRWFHHCRPKYSFRRLDDKTASESSYPGYNFRYAKYYKENNVEKRTLIKVFGIRFDILVFGTGGKFDIIQLIVFVGSTLSYFGLATLFIDFLINTYSSKFCRSSIYPCCKYCEPCSVNEYYYRKKCESIVEPKPRPSMDFTDLSRLPLSLQDPHVTPGQPEDIQLLSEEVTPRHKDSPHWCQCGNCLPSQLPESHRCLEELCCRKKMGACITTSEPFRKLVLSRRVLQFLLLYREPLLVLDADSTNSQLRHCAYRCYATWRFGSQDLADFAILPSCCRWRIRREFPRSEGQYSGFKSPY"}}, "target": "EIAV Env of the virulent strain (EIAV_DLV34), in infected macrophages (EIAV, virulent strain EIAV_DLV34)", "experiment": "affinity purification with mass spectrometry; anti-Env magnetic beads on lysate (1% Triton X-100, 50 mM Tris-HCl pH 7.4, 150 mM NaCl) of eMDMs three days after EIAV infection, 2 h at 4 °C; eluted with an Env epitope peptide; gel bands analysed by mass spectrometry", "note": "These are yes or no findings as the source states them, for the method shown. In cells and extracts the contact can be indirect. These calls come from enrichment with a bait or labelling near it, and not all partners need be listed.", "data": [{"binder": "B1", "values": [{"measurement": "binding", "result": "binds"}]}]}
